Data reported in article PMC5148607.
Results are given in words; binding and its absence hold for the method and conditions named. In cells and extracts the contact can be indirect. Some results given as binding are weak or reduced against the parent protein; the word gives no strength.

Amino acid sequences for entries named in this document (tags omitted). A change or cut given only in a name is not applied to a line headed by its entry.
UniProt P24610: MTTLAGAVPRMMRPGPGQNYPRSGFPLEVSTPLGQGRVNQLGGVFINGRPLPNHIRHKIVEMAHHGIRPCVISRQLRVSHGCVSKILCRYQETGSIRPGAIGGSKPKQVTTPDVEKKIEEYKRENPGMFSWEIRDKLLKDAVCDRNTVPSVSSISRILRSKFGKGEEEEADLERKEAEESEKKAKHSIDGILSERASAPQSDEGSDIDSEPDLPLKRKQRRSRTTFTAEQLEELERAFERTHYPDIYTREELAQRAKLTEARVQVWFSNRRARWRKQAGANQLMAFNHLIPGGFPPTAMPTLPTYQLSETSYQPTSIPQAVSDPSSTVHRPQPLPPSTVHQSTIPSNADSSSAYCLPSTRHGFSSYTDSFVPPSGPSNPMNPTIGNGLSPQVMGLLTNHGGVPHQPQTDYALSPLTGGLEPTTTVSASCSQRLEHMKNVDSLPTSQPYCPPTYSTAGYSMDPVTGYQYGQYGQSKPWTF
UniProt P28028: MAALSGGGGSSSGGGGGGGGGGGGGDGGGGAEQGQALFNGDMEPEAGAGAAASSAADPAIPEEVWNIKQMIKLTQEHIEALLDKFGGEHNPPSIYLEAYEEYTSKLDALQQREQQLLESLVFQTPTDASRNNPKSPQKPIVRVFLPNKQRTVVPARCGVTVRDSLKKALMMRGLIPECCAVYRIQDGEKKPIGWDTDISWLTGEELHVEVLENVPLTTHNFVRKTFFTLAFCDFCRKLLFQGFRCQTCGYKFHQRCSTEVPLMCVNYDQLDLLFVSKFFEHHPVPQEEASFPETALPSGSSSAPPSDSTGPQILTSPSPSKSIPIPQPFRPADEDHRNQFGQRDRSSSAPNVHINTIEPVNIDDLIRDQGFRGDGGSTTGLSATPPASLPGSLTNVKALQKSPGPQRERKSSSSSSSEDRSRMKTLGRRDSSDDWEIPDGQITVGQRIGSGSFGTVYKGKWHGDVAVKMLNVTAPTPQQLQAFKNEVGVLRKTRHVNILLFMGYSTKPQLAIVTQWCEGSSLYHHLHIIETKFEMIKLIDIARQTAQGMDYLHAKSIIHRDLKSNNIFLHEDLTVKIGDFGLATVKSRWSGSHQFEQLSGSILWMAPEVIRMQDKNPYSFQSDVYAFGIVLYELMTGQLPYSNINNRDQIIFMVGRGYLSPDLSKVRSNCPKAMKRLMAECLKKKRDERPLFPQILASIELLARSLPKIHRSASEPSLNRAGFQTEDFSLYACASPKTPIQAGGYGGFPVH
UniProt P15056: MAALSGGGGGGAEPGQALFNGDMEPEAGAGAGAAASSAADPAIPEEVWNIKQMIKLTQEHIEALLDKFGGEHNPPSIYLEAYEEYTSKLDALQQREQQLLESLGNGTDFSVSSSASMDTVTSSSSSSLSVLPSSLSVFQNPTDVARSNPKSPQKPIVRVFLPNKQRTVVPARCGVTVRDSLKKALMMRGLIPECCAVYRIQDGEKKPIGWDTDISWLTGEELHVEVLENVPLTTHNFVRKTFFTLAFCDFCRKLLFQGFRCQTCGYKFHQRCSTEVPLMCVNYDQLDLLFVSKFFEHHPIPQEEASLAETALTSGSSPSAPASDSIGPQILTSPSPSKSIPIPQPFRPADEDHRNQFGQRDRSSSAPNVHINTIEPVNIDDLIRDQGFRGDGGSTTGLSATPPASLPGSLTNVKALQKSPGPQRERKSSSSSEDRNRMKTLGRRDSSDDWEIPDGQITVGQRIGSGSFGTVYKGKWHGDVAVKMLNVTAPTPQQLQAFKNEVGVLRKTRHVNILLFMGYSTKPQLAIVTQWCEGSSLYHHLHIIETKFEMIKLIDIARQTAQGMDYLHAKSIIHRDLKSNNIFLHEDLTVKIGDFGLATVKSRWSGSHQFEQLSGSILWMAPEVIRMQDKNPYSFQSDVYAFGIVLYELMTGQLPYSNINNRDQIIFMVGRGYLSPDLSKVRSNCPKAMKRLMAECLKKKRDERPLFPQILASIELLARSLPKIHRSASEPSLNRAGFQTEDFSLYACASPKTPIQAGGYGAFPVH

Columns and labels:
[1] = target: PAX3 (endogenous, mouse) (mouse (endogenous in E10.5 limb buds and C2C12)) (UniProt P24610); assay: co-IP; E10.5 (and E12.5) wild type mouse limb buds; BRAF antibodies for IP and PAX3 antibodies for Western blot, or vice versa; endogenous proteins
[2] = target: PAX3 (endogenous, mouse) (mouse (endogenous in E10.5 limb buds and C2C12)) (UniProt P24610); assay: co-IP; endogenous PAX3 immunoprecipitated from C2C12 cells transfected with WT Braf, CA Braf (V600E) or vector; Western blot
[3] = target: PAX3 (endogenous, mouse) (mouse (endogenous in E10.5 limb buds and C2C12)) (UniProt P24610); assay: cross-linking; NHS-diazirine cross-linker (SD) in C2C12 cells transfected with CA Braf (V600E), then immunoprecipitation with BRAF or PAX3 antibodies and Western blot; cross-linker cleaved with DTT as control
[4] = target: PAX3 (endogenous, mouse) (mouse (endogenous in E10.5 limb buds and C2C12)) (UniProt P24610); assay: co-IP; immunoprecipitation from the nuclear fraction only of migrating C2C12 cells transfected with WT Braf, CA Braf (V600E) or HA-Pax3; Western blot
GST-PAX3 = GST-PAX3 (UniProt P24610); assay: pull-down; lysates of C2C12 cells transfected with wild type Braf or CA Braf (V600E) incubated overnight with PAX3-GST fusion protein coupled to glutathione-Sepharose beads; Western blot; only the target purified
[5] = target: BRAF (endogenous, mouse) (mouse (endogenous in E10.5 limb buds and C2C12)) (UniProt P28028); assay: co-IP; E10.5 (and E12.5) wild type mouse limb buds; BRAF antibodies for IP and PAX3 antibodies for Western blot, or vice versa; endogenous proteins

| Substance | binding [1] | binding [2] | binding [3] | binding [4] | binding (GST-PAX3) | binding [5] |
| --- | --- | --- | --- | --- | --- | --- |
| BRAF (endogenous, mouse) (from UniProt P28028 1-751) (enzyme) | binds | – | – | – | – | – |
| CA BRAF (V600E) (transfected, pEFm-V600E) (from UniProt P15056 1-766) (enzyme) | – | binds | binds | binds | binds | – |
| PAX3 (endogenous, mouse) (from UniProt P24610 1-479) | – | – | – | – | – | binds |
| WT BRAF (transfected, pEFm-BRAF) (from UniProt P15056 1-766) (enzyme) | – | binds | – | binds | binds | – |
